Experimental data taken from the supplement of paper PMC10060354, “Discovery of a small molecule ligand of FRS2 that inhibits invasion and tumor growth” (Cellular Oncology, 2022).
Many values rest on one well or one pass, so single values are uncertain.

Amino acid sequences for entries named in this document (tags omitted). A change or cut given only in a name is not applied to a line headed by its entry.
UniProt O95154: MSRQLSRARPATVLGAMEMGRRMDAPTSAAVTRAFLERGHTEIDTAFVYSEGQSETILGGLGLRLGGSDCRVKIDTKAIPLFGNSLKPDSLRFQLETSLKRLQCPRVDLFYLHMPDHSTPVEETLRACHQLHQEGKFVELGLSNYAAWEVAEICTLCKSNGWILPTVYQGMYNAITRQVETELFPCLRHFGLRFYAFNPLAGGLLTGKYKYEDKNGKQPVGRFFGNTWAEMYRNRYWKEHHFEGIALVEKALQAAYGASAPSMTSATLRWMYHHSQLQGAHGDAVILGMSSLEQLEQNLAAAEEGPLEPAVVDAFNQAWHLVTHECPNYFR
UniProt Q9NVV4: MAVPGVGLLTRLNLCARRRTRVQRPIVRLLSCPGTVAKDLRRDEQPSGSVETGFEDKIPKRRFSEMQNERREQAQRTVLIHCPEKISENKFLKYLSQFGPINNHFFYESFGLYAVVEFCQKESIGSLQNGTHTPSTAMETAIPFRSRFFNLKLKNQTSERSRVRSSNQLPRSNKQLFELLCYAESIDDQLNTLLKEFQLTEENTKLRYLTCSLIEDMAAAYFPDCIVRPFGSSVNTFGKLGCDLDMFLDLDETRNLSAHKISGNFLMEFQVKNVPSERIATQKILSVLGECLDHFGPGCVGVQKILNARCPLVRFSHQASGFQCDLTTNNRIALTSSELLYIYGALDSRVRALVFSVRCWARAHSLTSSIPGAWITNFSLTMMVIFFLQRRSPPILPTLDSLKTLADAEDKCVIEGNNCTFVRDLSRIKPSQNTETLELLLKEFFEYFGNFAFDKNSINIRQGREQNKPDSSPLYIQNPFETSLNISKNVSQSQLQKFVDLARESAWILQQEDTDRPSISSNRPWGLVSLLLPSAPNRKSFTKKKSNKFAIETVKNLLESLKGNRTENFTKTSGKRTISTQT
UniProt O95563: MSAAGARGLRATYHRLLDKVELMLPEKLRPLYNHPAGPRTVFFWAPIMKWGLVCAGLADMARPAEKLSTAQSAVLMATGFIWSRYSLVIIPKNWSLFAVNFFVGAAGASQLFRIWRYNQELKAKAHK
UniProt O14578, whole entry: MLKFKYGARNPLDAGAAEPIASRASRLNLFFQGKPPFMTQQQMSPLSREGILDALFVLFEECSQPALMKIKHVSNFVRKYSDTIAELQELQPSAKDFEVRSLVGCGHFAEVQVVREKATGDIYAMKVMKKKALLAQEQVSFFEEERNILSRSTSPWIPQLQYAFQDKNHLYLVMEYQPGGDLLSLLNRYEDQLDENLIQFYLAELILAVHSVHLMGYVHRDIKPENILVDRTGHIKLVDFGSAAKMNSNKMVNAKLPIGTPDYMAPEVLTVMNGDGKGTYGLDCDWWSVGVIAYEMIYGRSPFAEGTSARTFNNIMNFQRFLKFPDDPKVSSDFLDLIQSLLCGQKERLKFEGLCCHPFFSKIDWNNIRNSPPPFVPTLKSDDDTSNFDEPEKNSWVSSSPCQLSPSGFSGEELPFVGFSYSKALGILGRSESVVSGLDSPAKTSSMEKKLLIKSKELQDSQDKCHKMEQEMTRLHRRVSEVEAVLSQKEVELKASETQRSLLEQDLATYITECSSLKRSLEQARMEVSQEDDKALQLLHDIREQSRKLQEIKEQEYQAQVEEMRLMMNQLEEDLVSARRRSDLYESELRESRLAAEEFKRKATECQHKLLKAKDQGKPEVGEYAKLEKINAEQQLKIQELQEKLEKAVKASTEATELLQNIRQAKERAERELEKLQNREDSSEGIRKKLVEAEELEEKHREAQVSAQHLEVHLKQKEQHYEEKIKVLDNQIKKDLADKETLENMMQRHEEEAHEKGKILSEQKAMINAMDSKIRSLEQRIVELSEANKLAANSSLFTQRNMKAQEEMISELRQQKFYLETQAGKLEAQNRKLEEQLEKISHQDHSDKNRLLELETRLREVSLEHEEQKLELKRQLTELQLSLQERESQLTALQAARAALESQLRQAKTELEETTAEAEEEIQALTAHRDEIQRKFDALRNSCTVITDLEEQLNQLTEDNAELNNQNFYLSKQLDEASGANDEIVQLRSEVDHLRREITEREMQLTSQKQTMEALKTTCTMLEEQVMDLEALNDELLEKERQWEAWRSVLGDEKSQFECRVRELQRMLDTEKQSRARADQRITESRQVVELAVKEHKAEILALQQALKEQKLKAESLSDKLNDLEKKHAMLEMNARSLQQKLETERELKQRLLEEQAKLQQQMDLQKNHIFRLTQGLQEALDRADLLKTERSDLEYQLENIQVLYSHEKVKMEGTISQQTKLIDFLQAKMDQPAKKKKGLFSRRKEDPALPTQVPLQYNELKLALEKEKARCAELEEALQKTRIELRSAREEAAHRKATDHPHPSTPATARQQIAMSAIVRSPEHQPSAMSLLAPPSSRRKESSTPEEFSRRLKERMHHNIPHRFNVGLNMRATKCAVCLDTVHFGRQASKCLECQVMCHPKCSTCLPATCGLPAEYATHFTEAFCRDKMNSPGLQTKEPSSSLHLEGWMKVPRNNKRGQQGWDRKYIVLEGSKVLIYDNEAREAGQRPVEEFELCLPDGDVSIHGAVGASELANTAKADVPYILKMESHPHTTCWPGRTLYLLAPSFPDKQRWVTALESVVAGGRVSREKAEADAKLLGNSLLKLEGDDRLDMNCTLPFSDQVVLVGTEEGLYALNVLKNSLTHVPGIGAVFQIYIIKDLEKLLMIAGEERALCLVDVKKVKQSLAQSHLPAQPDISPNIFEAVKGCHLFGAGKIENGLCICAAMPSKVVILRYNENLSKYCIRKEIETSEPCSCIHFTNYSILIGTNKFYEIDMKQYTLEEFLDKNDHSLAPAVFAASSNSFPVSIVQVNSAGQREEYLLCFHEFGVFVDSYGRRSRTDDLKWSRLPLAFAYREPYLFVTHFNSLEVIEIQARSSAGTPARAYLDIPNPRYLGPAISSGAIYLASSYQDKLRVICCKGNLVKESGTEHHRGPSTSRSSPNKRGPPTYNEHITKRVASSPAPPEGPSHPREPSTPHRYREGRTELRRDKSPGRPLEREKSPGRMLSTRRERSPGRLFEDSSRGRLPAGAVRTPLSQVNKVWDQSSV
UniProt Q9ULH7: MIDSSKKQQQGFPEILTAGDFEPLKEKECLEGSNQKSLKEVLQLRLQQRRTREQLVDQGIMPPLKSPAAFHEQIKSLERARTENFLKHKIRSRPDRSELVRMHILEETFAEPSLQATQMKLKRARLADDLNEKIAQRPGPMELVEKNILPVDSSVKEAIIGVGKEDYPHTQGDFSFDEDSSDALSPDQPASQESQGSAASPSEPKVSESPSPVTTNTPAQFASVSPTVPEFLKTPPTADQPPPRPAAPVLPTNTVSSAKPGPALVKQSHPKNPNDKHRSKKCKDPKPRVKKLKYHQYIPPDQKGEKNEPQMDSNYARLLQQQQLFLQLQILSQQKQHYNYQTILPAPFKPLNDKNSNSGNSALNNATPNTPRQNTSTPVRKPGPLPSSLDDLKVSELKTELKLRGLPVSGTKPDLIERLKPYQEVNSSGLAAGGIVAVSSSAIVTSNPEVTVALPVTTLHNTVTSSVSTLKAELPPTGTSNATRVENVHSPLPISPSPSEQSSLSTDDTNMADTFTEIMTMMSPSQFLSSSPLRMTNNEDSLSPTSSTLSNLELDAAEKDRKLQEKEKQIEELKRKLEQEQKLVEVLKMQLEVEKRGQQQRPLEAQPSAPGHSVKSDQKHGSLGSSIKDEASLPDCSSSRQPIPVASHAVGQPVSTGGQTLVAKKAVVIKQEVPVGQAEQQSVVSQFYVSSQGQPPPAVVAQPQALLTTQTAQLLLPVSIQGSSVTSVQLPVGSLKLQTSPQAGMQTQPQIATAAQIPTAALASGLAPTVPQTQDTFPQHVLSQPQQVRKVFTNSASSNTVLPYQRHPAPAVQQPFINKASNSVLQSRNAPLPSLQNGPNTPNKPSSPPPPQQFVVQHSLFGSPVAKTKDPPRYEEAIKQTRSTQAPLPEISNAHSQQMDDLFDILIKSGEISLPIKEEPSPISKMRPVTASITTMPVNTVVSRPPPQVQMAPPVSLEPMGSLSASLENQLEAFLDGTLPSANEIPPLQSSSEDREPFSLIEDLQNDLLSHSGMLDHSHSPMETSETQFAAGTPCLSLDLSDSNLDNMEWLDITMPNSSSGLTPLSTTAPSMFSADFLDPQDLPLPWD
UniProt P26440: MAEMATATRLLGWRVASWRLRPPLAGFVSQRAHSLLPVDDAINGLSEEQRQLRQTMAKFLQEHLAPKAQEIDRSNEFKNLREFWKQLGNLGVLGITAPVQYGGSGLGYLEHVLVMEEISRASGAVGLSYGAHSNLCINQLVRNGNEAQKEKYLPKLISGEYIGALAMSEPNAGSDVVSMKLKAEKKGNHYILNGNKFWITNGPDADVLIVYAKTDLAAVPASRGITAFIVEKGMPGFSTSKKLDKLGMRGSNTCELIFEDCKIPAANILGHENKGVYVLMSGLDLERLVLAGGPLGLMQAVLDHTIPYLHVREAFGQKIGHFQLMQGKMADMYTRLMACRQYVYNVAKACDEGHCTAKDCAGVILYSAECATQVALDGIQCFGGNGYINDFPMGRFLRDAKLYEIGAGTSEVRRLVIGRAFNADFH
UniProt Q15907: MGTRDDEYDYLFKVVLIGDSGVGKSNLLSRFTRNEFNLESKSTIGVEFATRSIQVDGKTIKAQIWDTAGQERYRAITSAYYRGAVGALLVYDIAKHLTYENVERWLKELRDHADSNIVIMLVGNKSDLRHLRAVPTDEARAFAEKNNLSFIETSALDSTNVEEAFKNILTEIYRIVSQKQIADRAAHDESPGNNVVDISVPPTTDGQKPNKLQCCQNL
UniProt Q96DA6: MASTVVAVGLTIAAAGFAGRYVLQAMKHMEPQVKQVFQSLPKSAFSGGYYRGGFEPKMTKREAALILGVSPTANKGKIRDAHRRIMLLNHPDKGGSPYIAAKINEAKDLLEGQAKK
UniProt Q5BJH2: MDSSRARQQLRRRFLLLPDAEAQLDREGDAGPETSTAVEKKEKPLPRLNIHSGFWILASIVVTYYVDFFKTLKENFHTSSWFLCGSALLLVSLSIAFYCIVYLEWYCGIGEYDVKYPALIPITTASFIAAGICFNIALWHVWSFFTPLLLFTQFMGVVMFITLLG
UniProt Q9BQS8: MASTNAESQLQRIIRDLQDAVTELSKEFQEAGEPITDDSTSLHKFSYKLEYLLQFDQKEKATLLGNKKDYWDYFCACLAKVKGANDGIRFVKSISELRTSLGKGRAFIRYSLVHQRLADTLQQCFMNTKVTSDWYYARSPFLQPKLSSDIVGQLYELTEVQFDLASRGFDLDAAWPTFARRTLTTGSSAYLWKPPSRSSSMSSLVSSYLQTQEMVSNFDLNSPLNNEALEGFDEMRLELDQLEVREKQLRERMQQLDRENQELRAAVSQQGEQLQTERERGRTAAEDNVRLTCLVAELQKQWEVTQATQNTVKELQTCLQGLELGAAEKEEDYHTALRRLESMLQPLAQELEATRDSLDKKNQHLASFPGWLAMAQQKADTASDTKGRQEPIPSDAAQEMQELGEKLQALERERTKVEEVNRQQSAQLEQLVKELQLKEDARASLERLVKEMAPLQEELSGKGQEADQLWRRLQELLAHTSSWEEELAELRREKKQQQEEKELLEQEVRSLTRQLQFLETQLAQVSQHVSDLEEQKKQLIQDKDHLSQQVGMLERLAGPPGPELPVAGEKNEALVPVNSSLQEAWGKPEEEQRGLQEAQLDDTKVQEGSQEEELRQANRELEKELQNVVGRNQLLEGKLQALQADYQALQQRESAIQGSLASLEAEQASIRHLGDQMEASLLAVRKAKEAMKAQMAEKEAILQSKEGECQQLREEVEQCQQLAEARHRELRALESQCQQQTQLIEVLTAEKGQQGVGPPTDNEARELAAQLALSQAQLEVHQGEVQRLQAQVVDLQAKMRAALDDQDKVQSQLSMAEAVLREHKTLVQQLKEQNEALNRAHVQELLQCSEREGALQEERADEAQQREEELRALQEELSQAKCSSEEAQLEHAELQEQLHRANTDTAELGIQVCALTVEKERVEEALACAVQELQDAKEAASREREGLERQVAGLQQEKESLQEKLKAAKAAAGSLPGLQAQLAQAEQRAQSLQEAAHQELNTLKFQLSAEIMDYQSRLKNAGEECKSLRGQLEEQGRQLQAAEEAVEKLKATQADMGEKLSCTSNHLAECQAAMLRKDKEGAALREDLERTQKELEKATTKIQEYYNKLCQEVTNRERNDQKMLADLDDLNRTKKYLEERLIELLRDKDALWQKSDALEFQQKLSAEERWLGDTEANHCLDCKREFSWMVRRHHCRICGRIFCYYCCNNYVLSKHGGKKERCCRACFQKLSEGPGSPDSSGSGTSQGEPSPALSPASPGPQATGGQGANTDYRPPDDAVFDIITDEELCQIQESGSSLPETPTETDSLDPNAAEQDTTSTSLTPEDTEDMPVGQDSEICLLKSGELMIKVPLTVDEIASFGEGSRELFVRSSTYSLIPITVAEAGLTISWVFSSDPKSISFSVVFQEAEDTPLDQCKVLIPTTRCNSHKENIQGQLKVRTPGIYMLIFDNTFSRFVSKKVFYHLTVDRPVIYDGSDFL

Compound: [O-][N+](C(C1=C(C(O)=C2)NC(C(C=C3)=CC=C3Cl)C4C1C=CC4)=C2Cl)=O
Experiment: melting temperature shift (compound 7 minus DMSO); higher = compound stabilises the protein
Details: 10 µM
Procedure: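 Thermal proteome profiling (TMT mass spectrometry) in intact DAOY medulloblastoma cells or DAOY lysates treated with 10 µM compound 7 or DMSO, heated at 10 temperatures from 40.5 to 73.8 °C for 3 min. Melting curves were fitted with the Bioconductor TPP package, and the melting point difference between compound and vehicle is reported per protein (single curve per condition).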

[1] = system: DAOY cell lysate, treatment time: 20 min, 4 °C
[2] = system: intact DAOY cells, treatment time: 90 min, 37 °C

| Target | melting temperature shift [1] | melting temperature shift [2] |
| --- | --- | --- |
| UniProt Q3B7J2 | -2.32 °C | – |
| STAG1 (UniProt Q8WVM7) | 0.909 °C | -0.938 °C |
| UniProt Q16635 | 0.394 °C | -0.971 °C |
| A0A1B0GTU1, A0A1B0GTU1 | – | -4.65 °C |
| UniProt Q4L180 | 2.02 °C | 0.986 °C |
| RAB5A (UniProt P20339) | -0.101 °C | -0.318 °C |
| UniProt Q9UJJ9 | 0.809 °C | -1.74 °C |
| NPM1 (UniProt P06748) | -0.196 °C | 1.09 °C |
| UniProt A6NHL2 | – | 0.435 °C |
| UniProt Q68CJ9 | – | -0.343 °C |
| CPNE3 (UniProt O75131) | -0.427 °C | 0.21 °C |
| ARHGEF12 (UniProt Q9NZN5) | -0.182 °C | -3.13 °C |
| UniProt O95154 | – | -0.125 °C |
| UniProt Q9H6U8 | 1.29 °C | 0.0302 °C |
| TXNDC12 (UniProt O95881) | 0.299 °C | 0.11 °C |
| DTD1 (UniProt Q8TEA8) | 0.748 °C | -1.01 °C |
| MTPAP (UniProt Q9NVV4) | -0.538 °C | – |
| MGST1 (UniProt P10620) | 2.23 °C | -2.75 °C |
| SPAST (UniProt Q9UBP0) | -0.84 °C | -0.95 °C |
| RPL22L1 (UniProt Q6P5R6) | 0.604 °C | – |
| C8ORF33 (UniProt Q9H7E9) | -1.19 °C | -0.158 °C |
| SETD3 (UniProt Q86TU7) | -0.0165 °C | -0.217 °C |
| UBE2E3 (UniProt Q969T4) | 0.793 °C | -1.18 °C |

| Target | melting temperature shift [1] | melting temperature shift [2] |
| --- | --- | --- |
| UniProt O60507 | 1.5 °C | 0.143 °C |
| IPO7 (UniProt O95373) | -1.19 °C | -0.548 °C |
| LPCAT3 (UniProt Q6P1A2) | – | -2.62 °C |
| CDK3 (UniProt Q00526) | – | 0.146 °C |
| XPOT (UniProt O43592) | -1.2 °C | -0.745 °C |
| COPS7B (UniProt Q9H9Q2) | -0.46 °C | 0.271 °C |
| ARHGDIB (UniProt P52566) | -0.714 °C | 0.221 °C |
| UniProt Q5VTE0 | – | -1.18 °C |
| RPS15 (UniProt P62841) | -0.132 °C | -0.863 °C |
| FLNB (UniProt O75369) | -0.359 °C | -0.234 °C |
| HINT1 (UniProt P49773) | -0.353 °C | -0.398 °C |
| UniProt P51587 | 0.079 °C | – |
| GTF2A2 (UniProt P52657) | 0.132 °C | -2.24 °C |
| DDX56 (UniProt Q9NY93) | 0.084 °C | -0.235 °C |
| GOLPH3 (UniProt Q9H4A6) | 0.626 °C | 0.14 °C |
| PCNT (UniProt O95613) | -1.57 °C | -1.3 °C |
| UniProt Q05639 | -0.504 °C | -0.29 °C |
| MCM3 (UniProt P25205) | -0.484 °C | -1.06 °C |
| TK1 (UniProt P04183) | -1.49 °C | – |
| ACTR5 (UniProt Q9H9F9) | 0.239 °C | – |
| KDELC1 (UniProt Q6UW63) | -0.245 °C | 0.244 °C |
| UniProt O60462 | -1.03 °C | -2.22 °C |
| UniProt Q8WTS1 | 0.782 °C | – |

| Target | melting temperature shift [1] | melting temperature shift [2] |
| --- | --- | --- |
| ASPH (UniProt Q12797) | 1.92 °C | 0.308 °C |
| UniProt Q99972 | – | 0.799 °C |
| UniProt P03886 | 0.444 °C | 0.15 °C |
| GLB1 (UniProt P16278) | 0.677 °C | -2.22 °C |
| PIN1 (UniProt Q13526) | -1.01 °C | -0.428 °C |
| TMEM57 (UniProt Q8N5G2) | -0.196 °C | -0.657 °C |
| UniProt O43909 | – | -1.07 °C |
| CDK9 (UniProt P50750) | 0.151 °C | 1.17 °C |
| UniProt O14746 | – | -0.229 °C |
| CCDC9 (UniProt Q9Y3X0) | -1.3 °C | – |
| RALA (UniProt P11233) | 2.14 °C | 0.819 °C |
| RPL15 (UniProt P61313) | 0.248 °C | -0.184 °C |
| SEMA3C (UniProt Q99985) | -1.05 °C | – |
| PPID (UniProt Q08752) | -0.357 °C | -0.287 °C |
| HAGH (UniProt Q16775) | 0.307 °C | 0.0132 °C |
| MPC2 (UniProt O95563) | 1.63 °C | -0.995 °C |
| NR2C2AP (UniProt Q86WQ0) | 0.355 °C | – |
| ERCC3 (UniProt P19447) | -0.682 °C | -3.01 °C |
| PPP6R1 (UniProt Q9UPN7) | -1.26 °C | -0.929 °C |
| UniProt O95478 | 1.42 °C | – |
| SLC39A7 (UniProt Q92504) | 3.03 °C | -3.24 °C |
| CIT (UniProt O14578) | -0.389 °C | 0.0352 °C |
| GLOD4 (UniProt Q9HC38) | 0.0191 °C | 0.463 °C |

Single entries from above.
Entry for UniProt O95478 under melting temperature shift [1]: 1.42 °C
Entry for MPC2 (UniProt O95563) under melting temperature shift [1]: 1.63 °C
Entry for ERCC3 (UniProt P19447) under melting temperature shift [2]: -3.01 °C
Entry for PPID (UniProt Q08752) under melting temperature shift [2]: -0.287 °C
Entry for GLB1 (UniProt P16278) under melting temperature shift [2]: -2.22 °C
Entry for SEMA3C (UniProt Q99985) under melting temperature shift [1]: -1.05 °C

The listing continues.

| Target | melting temperature shift [1] | melting temperature shift [2] |
| --- | --- | --- |
| TMTC3 (UniProt Q6ZXV5) | 0.168 °C | -0.436 °C |
| GOLPH3L (UniProt Q9H4A5) | – | 1.3 °C |
| NOLC1 (UniProt Q14978) | 3.63 °C | – |
| UniProt P48230 | – | -0.529 °C |
| UBE2T (UniProt Q9NPD8) | -0.122 °C | -0.658 °C |
| TPRG1L (UniProt Q5T0D9) | 2.8 °C | – |
| LTV1 (UniProt Q96GA3) | 0.664 °C | 0.953 °C |
| DDX18 (UniProt Q9NVP1) | – | 1.5 °C |
| MKL2 (UniProt Q9ULH7) | -4.33 °C | -2.35 °C |
| CCAR2 (UniProt Q8N163) | -0.866 °C | 0.102 °C |
| CEP170 (UniProt Q5SW79) | -0.468 °C | -0.123 °C |
| IVD (UniProt P26440) | 0.163 °C | -0.954 °C |
| BROX (UniProt Q5VW32) | -0.137 °C | -0.222 °C |
| CAV2 (UniProt P51636) | 0.959 °C | – |
| POLR1C (UniProt O15160) | 1.12 °C | 1.3 °C |
| NT5C3A (UniProt Q9H0P0) | -0.13 °C | 0.276 °C |
| CTTN (UniProt Q14247) | -3.66 °C | – |
| UniProt A5D8V6 | -0.156 °C | – |
| UniProt Q96AB6 | 0.419 °C | – |
| UniProt Q9BSU3 | 0.332 °C | 0.479 °C |
| ARF4 (UniProt P18085) | -1.02 °C | -1.59 °C |
| DNAAF5 (UniProt Q86Y56) | 0.11 °C | 1.13 °C |
| DCTN2 (UniProt Q13561) | -0.773 °C | 0.919 °C |

| Target | melting temperature shift [1] | melting temperature shift [2] |
| --- | --- | --- |
| UCKL1 (UniProt Q9NWZ5) | 1.56 °C | -0.242 °C |
| DNAJB2 (UniProt P25686) | -1.74 °C | 0.452 °C |
| PPM1H (UniProt Q9ULR3) | – | -0.13 °C |
| GAK (UniProt O14976) | 0.651 °C | 0.727 °C |
| RPL37 (UniProt P61927) | 0.867 °C | -0.337 °C |
| TNIP1 (UniProt Q15025) | -0.578 °C | -0.465 °C |
| RAB11B (UniProt Q15907) | 0.018 °C | -0.801 °C |
| DNAJC19 (UniProt Q96DA6) | 2.06 °C | -0.573 °C |
| UniProt Q5BJH2 | 3.85 °C | 0.878 °C |
| DTX3L (UniProt Q8TDB6) | -1.61 °C | – |
| UniProt Q8WXF7 | 3.94 °C | 0.414 °C |
| SLC39A11 (UniProt Q8N1S5) | – | -1.35 °C |
| SMARCA4 (UniProt P51532) | -0.269 °C | -0.924 °C |
| SFXN4 (UniProt Q6P4A7) | -2.96 °C | -0.252 °C |
| RASA3 (UniProt Q14644) | 2.58 °C | -1.72 °C |
| MED17 (UniProt Q9NVC6) | 0.334 °C | 1.04 °C |
| UniProt Q99549 | – | 0.885 °C |
| USP7 (UniProt Q93009) | -0.383 °C | -0.101 °C |
| FYCO1 (UniProt Q9BQS8) | -0.3 °C | -0.0945 °C |
| DDX3X (UniProt O00571) | 0.339 °C | 0.553 °C |
| RAP1A (UniProt P62834) | -0.523 °C | -2.85 °C |
